Reference: PubChem BioAssay
This is one part of the list. Results with a measured potency or affinity are listed apart. Entries without a call are filed as inconclusive in the source.

Assay: PubChem AID 1597
Details: Drosophila SCA1 polyglutamine model, at 1 µM, stronger effect = higher value

Question: For `O=C(CCBr)N1CCN(C(=O)CCBr)CC1`, which suppression of toxicity is on record?
Answer: 2.86

Question: With `COc1ccc(CCC(=O)c2c(O)cc(O[C@@H]3O[C@H](CO)C(O)[C@H](O)C3O[C@@H]3O[C@@H](C)[C@H](O)[C@@H](O)[C@H]3O)cc2O)cc1O` (stereo not given in full) as the compound, how does the suppression of toxicity read?
Answer: 5.71

Question: Which suppression of toxicity does the source give for `C[n+]1c2cc(N)ccc2cc2ccc(N)cc21` here?
Answer: 10.7

Question: For `Nc1ccc(S(=O)(=O)Nc2nccs2)cc1`, which suppression of toxicity is on record?
Answer: 1.43

Question: For `Cc1ccc(C(C)C)cc2c(C)ccc1-2`, which suppression of toxicity is on record?
Answer: 0

Question: With `CSc1ccc2c(c1)N(CCC1CCCCN1C)c1ccccc1S2` (stereo not given) as the compound, how does the suppression of toxicity read?
Answer: 13.6

Question: Which suppression of toxicity does the source give for `COC(=O)[C@H]1[C@H]2C[C@H]3c4[nH]c5ccccc5c4CCN3C[C@H]2CC[C@@H]1O` here?
Answer: 7.86

Question: For `CC(=O)[C@H]1CCC2C3CC=C4C[C@@H](O)CC[C@]4(C)C3CC[C@@]21C` (stereo not given in full), which suppression of toxicity is on record?
Answer: 5

Question: Which suppression of toxicity does the source give for `Cc1cc(C2CCCCC2)n(O)c(=O)c1` here?
Answer: 3.58

Question: With `CN(C)CC/C=C1\c2ccccc2Sc2ccc(Cl)cc21` as the compound, how does the suppression of toxicity read?
Answer: 0.715

Question: With `CCn1cc(C(=O)O)c(=O)c2cnc(N3CCNCC3)nc21` as the compound, how does the suppression of toxicity read?
Answer: 7.86

Question: Which suppression of toxicity does the source give for `CCCCCCCCCCCCC[N+](C)(C)Cc1ccccc1` here?
Answer: 4.29

Question: For `NNC(=O)c1ccncc1`, which suppression of toxicity is on record?
Answer: 4.29

Question: With `NC(Cc1ccc(Cl)cc1)C(=O)O` (stereo not given) as the compound, how does the suppression of toxicity read?
Answer: 0.715

Question: For `CN(C)CCOC(=O)C(c1ccccc1)C1(O)CCCC1` (stereo not given), which suppression of toxicity is on record?
Answer: 5

Question: Which suppression of toxicity does the source give for `COc1cc(NS(=O)(=O)c2ccc(N)cc2)ncn1` here?
Answer: 0.715

Question: Which suppression of toxicity does the source give for `O=C(O)CCC(=O)Nc1ccc(S(=O)(=O)Nc2nccs2)cc1` here?
Answer: 0

Question: For `CC(=O)N1CCN(c2ccc(OCC3CO[C@](Cn4ccnc4)(c4ccc(Cl)cc4Cl)O3)cc2)CC1` (stereo not given in full), which suppression of toxicity is on record?
Answer: 0

Question: Which suppression of toxicity does the source give for `CC(C)(C)NCC(O)c1cc(O)cc(O)c1` (stereo not given) here?
Answer: 7.86

Question: With `CNC[C@H](O)c1cccc(O)c1` as the compound, how does the suppression of toxicity read?
Answer: 11.4

Question: Which suppression of toxicity does the source give for `Cc1c(C(N)=O)cc([N+](=O)[O-])cc1[N+](=O)[O-]` here?
Answer: 8.57

Question: For `O=C1CN(/N=C/c2ccc([N+](=O)[O-])o2)C(=O)N1`, which suppression of toxicity is on record?
Answer: 4.29

Question: With `S=c1nc[nH]c2nc[nH]c12` as the compound, how does the suppression of toxicity read?
Answer: 2.86

Question: For `NC(N)=NCCCCN=C(N)N`, which suppression of toxicity is on record?
Answer: 9.29

Question: With `COC(=O)C(C)C[N+](C)(C)C` (stereo not given) as the compound, how does the suppression of toxicity read?
Answer: 2.15

Question: With `CC(CN(C)C)CN1c2ccccc2Sc2ccccc21` (stereo not given) as the compound, how does the suppression of toxicity read?
Answer: 0.715

Question: Which suppression of toxicity does the source give for `NC(COCc1ccccc1)C(=O)O` (stereo not given) here?
Answer: 1.43

Question: Which suppression of toxicity does the source give for `O=C(O)c1ccccc1O` here?
Answer: 10

Question: With `Clc1ccc(C(c2ccccc2Cl)C(Cl)Cl)cc1` (stereo not given) as the compound, how does the suppression of toxicity read?
Answer: 4.29

Question: Which suppression of toxicity does the source give for `Nc1ccc(S(N)(=O)=O)cc1` here?
Answer: 10

Question: With `CCC(c1ccc(O)cc1)C(CC)c1ccc(O)cc1` (stereo not given) as the compound, how does the suppression of toxicity read?
Answer: 0.715

Question: With `COC1=CC(=O)C[C@@H](C)[C@]12Oc1c(Cl)c(OC)cc(OC)c1C2=O` as the compound, how does the suppression of toxicity read?
Answer: 6.42

Question: Which suppression of toxicity does the source give for `CN1CCN(C2=Nc3cc(Cl)ccc3Nc3ccccc32)CC1` here?
Answer: 9.29

Question: For `C#C[C@]1(O)CCC2C3CCC4=CC(=O)CC[C@@H]4C3CC[C@@]21CC` (stereo not given in full), which suppression of toxicity is on record?
Answer: 7.14

Question: With `CCC(C)C(N)C1=NC(C(=O)NC(CC(C)C)C(=O)NC(CCC(=O)O)C(=O)NC(C(=O)NCCCCC2NC(=O)C(CC(N)=O)NC(=O)C(CC(=O)O)NC(=O)C(Cc3cnc[nH]3)NC(=O)C(Cc3ccccc3)NC(=O)C(C(C)CC)NC(=O)C(CCCN)NC2=O)C(C)CC)CS1` (stereo not given) as the compound, how does the suppression of toxicity read?
Answer: 3.58

Question: For `COc1cc2nc(N3CCN(C(=O)c4ccco4)CC3)nc(N)c2cc1OC`, which suppression of toxicity is on record?
Answer: 5

Question: For `CCn1cc(C(=O)O)c(=O)c2cc(F)c(N3CCNCC3)cc21`, which suppression of toxicity is on record?
Answer: 4.29

Question: With `COc1cccc(C(=O)c2ccccc2O)c1O` as the compound, how does the suppression of toxicity read?
Answer: 0.715

Question: Which suppression of toxicity does the source give for `CC1(C)S[C@@H]2[C@H](NC(=O)COc3ccccc3)C(=O)N2[C@H]1C(=O)O` here?
Answer: 3.58

Question: Which suppression of toxicity does the source give for `O=C(O)CN(CC(=O)O)Cc1cc2c(-c3ccccc3C(=O)O)c3cc(CN(CC(=O)O)CC(=O)O)c(=O)cc-3oc2cc1O` here?
Answer: 2.85
